Measurements as given in patent US20230357292A1, “MULTI-COORDINATE GOLD-PHOSPHINE COMPOUNDS AND METHOD OF USE” (University of Kentucky Research Foundation, priority 2020, published 2023).

Tested on: OVCAR8 cells
Details: OVCAR8, 15 h, GF-AAS

SMILES: [Cl-].[Cl][Au-]1([c]2ccccc2Cc2ccccn2)[P+](c2ccccc2)(c2ccccc2)c2ccccc2[P+]1(c1ccccc1)c1ccccc1 [AuPhos-84, (2-benzylpyridine)[1,2-Bis(diphenylphosphino)benzene]gold(III) Dichloride]
- whole-cell uptake: appreciable amount of compound was detected in cells

SMILES: [Cl-].[Cl][Au-]1([c]2ccccc2-c2ccccn2)[P+](c2ccccc2)(c2ccccc2)c2ccccc2[P+]1(c1ccccc1)c1ccccc1 [AuPhos-89, (2-phenylpyridine)[1,2-Bis(diphenylphosphino)benzene]gold(III) Dichloride]
- whole-cell uptake: appreciable amount of compound was detected in cells
